Experimental data published in patent US4910296A (priority 1980, dated 1990).

Assay: general procedure: solution-phase peptide synthesis; mixed anhydride (isobutyloxycarbonyl chloride) for stepwise couplings; dicyclohe
Conditions: coupling step

Compared with “Ddz-Lys(Z)-Glu(OBu^t)-Val-Val-Glu(OBu^t)-Glu(OBu^t)-AlaOBzl”, “Ddz-Lys(Z)Glu(OBu^t)-Lys(Z)-Glu(OBu^t)-Val-Val-Glu(OBu^t)OMe” is higher in step yield: 58% for the first, 60% for the second.

Going from “Ddz-Glu(OBu^t)-Lys(Z)-Glu(OBu^t)Val-Val-Glu(OBu^t)OMe” to “Ddz-Lys(Z)-Glu(OBu^t)-Val-Val-Glu(OBu^t)-Glu(OBu^t)OBu^t”, the step yield falls from 87% to 52%.

Substance “Ddz-Lys(Z)-Lys(Z)-Glu(OBu^t)-Val-Val-Glu(OBu^6)-OMe” has a step yield of 91%.

For “Ddz-Asp(OBu^t)-Ala-Ala-Val-Asp(OBu^t)-OBzl”, the difficulty met was “(f) Ddz-(2-6)-OBzl, Ddz-Asp(OBu^t)-Ala-Ala-Val-Asp(OBu^t)-OBzl: In the conventional reaction of 11.6 mmol of Ddz-Asp-(OBu^t)-OH with 5.8 mmol of Ddz-(3-6)-OBzl, the poor solubility of the amine compon”.
